No constants are given. Whether binding was seen depends on the method and setting. For part of these data: Binding seen in cells or lysates may run through a third protein. Some results given as binding are weak or reduced against the parent protein; the word gives no strength. Values belong to the substance of their own block, whether it stands above or below them.
Experiments:
[1] = molecular target: AR ligand-binding domain (AR LBD) (human) (UniProt P10275); assay: GST pull-down: GST-ARA67 fragments with 35S-labeled AR LBD
[2] = molecular target: AR N-terminus, amino acids 1-537 (bait of the CytoTrap Sos screen) (human) (UniProt P10275); assay: CytoTrap Sos yeast two-hybrid (pSos-ARN + pMyr-ARA67)
[3] = molecular target: AR N-terminus, amino acids 1-537 (bait of the CytoTrap Sos screen) (human) (UniProt P10275); assay: CytoTrap Sos yeast two-hybrid, growth on SD/Gal(-LU) at 37° C
[4] = molecular target: AR ligand-binding domain (AR LBD) (human) (UniProt P10275); assay: summary of Example 2 (GST pull-down)
[5] = molecular target: AR ligand-binding domain (AR LBD) (human) (UniProt P10275); assay: GST pull-down (FIG. 9B)
[6] = molecular target: AR ligand-binding domain (AR LBD) (human) (UniProt P10275); assay: GST pull-down: GST-ARA67 with 35S-labeled AR LBD
[7] = molecular target: AR ligand-binding domain (AR LBD) (human) (UniProt P10275); assay: GST pull-down: GST-ARA67 with 35S-labeled ARLBD
[8] = molecular target: AR N-terminal fragment ARN1-140 (human) (UniProt P10275); assay: GST pull-down: GST-ARN1-140 with 35S-labeled ARA67
AR DBD-LBD (human) = AR DBD-LBD (human) (UniProt P10275); assay: yeast two-hybrid, liquid β-gal assay, bait GAL4 DBD-AR-DBD-LBD, DHT
[9] = molecular target: androgen receptor (AR), full length (human) (UniProt P10275); assay: co-immunoprecipitation (FIG. 19)
[10] = molecular target: androgen receptor (AR), full length (human) (UniProt P10275); assay: GST pull-down: GST-GSK3β with 35S-labeled AR
[11] = molecular target: androgen receptor (AR), full length (human) (UniProt P10275); assay: co-immunoprecipitation of endogenous proteins from LNCaP cells with anti-AR NH27, anti-GSK3β blot
[12] = molecular target: androgen receptor (AR), full length (human) (UniProt P10275); assay: co-immunoprecipitation with anti-AR antibody from transfected COS-1 cells
[13] = molecular target: androgen receptor (AR), full length (human) (UniProt P10275); assay: GST pull-down and co-immunoprecipitation
[14] = molecular target: androgen receptor (AR), full length (human) (UniProt P10275); assay: co-immunoprecipitation with anti-HA antibody from COS-1 cells transfected with AR and HA-GSK3β, anti-AR blot
[15] = molecular target: androgen receptor (AR), full length (human) (UniProt P10275); assay: GST pull-down and co-immunoprecipitation (FIG. 19)

Amino acid sequences for entries named in this document (tags omitted). A change or cut given only in a name is not applied to a line headed by its entry.
UniProt P10275: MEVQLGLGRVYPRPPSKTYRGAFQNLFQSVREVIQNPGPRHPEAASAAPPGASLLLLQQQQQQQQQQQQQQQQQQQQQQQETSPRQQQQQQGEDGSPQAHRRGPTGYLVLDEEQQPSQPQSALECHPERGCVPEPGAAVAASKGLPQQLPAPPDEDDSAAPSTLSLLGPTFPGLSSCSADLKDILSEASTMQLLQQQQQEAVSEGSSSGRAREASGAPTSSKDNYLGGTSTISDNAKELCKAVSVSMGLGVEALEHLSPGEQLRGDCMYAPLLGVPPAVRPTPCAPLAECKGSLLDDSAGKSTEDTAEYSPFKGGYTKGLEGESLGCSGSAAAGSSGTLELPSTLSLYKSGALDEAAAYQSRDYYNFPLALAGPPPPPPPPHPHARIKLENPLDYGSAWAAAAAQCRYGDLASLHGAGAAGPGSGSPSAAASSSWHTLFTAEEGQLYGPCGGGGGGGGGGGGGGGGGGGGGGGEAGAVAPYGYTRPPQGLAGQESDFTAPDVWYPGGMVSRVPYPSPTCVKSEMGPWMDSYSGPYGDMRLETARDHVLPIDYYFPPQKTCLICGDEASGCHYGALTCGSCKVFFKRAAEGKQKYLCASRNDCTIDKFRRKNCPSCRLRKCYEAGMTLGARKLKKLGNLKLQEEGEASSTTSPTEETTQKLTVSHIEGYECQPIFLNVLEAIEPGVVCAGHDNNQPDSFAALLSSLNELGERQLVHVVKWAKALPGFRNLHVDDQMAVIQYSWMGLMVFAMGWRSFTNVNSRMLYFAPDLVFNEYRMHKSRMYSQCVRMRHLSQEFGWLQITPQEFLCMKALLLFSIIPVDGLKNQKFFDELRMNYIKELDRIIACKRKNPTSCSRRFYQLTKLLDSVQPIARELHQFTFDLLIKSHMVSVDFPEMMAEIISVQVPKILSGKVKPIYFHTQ
UniProt Q92624: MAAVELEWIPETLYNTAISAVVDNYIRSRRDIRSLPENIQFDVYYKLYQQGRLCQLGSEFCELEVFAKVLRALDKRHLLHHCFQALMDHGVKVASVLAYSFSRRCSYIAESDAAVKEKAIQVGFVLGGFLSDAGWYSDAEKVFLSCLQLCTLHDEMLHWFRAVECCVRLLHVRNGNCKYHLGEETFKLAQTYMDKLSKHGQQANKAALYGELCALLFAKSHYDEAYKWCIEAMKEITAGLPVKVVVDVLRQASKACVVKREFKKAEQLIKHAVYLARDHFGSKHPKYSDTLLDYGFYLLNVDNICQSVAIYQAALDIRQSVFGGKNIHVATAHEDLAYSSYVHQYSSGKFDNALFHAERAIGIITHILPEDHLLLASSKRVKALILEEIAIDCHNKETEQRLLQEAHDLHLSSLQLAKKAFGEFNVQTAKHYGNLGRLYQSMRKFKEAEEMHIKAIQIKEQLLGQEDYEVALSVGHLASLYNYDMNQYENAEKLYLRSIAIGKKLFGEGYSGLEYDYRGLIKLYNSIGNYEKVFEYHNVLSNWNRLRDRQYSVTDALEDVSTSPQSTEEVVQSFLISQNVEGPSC
UniProt P49841: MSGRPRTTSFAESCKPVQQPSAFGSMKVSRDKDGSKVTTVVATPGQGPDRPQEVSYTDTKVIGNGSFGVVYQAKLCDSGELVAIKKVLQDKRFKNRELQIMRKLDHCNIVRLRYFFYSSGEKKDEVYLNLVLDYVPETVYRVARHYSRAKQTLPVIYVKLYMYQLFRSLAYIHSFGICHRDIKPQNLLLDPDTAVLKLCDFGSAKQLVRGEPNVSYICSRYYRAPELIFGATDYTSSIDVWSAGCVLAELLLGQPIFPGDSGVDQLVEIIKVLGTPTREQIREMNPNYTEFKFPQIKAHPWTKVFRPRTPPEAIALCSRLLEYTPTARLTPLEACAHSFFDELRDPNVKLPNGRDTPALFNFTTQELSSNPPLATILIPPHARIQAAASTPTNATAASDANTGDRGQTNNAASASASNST
UniProt Q13772: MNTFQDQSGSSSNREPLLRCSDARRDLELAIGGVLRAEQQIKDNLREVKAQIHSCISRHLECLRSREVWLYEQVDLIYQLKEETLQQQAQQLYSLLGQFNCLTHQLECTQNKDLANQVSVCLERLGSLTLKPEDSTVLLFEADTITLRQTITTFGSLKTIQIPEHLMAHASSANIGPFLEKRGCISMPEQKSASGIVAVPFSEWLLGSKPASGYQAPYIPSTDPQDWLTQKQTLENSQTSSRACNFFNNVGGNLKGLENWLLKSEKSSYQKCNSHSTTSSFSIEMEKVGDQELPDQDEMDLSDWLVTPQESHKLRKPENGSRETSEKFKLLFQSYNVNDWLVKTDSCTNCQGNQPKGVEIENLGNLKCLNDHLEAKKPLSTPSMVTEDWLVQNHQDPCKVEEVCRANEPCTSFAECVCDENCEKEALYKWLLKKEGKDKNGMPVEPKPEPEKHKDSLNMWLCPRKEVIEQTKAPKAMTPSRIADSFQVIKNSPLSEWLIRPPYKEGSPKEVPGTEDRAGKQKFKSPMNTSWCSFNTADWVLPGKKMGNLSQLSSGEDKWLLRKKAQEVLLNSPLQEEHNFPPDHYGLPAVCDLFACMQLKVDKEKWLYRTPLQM

Substance: ARA67 8-140 (from UniProt Q92624 8-140)
binding [1]: binds

Substance: ARA67 C-terminal region, ARA67 281-585 (from UniProt Q92624 281-585)
binding [1]: binds

Substance: glycogen synthase kinase 3β (GSK3β), full length wild type (from UniProt P49841 1-420) (enzyme)
binding [9]: binds
binding [10]: binds
binding [11]: binds
binding [12]: binds
binding [13]: binds
binding [14]: binds
binding [15]: binds

Next, values leading:

binding [1]: binds
Substance: ARA67 281-550 (from UniProt Q92624 281-550)

binding [2]: binds
binding [3]: binds
Substance: ARA67 clone of the CytoTrap screen, amino acids 20-585 of PAT1 (pMyr-ARA67) (from UniProt Q92624 20-585)

binding [4]: binds
binding [5]: binds
binding [6]: binds
binding [7]: binds
binding [8]: binds
Substance: ARA67/PAT1, full length (585 amino acids) (from UniProt Q92624 1-585)

binding (AR DBD-LBD (human)): binds
Substance: ARA70 (from UniProt Q13772 1-614)

Reference: US20080050387A1, “Non-Androgen Dependent Roles for Androgen Receptor and Non-Androgen Related Inhibitors of Androgen Receptor” (priority 2003, published 2008)
